Data published in patent US20160130315A1.
No constants are given. Whether binding was seen depends on the method and setting. Binding calls can cover weak binding; strength is not graded here.

Legend:
Conditions in all cases: remark: other sources report otherwise
[1] = target: b1b2 domains (273-586) of neuropilin-1, O14786; test: ELISA, plate-bound b1b2 domain
[2] = target: b1b2 domains (275-595) of neuropilin-2, O60462; test: ELISA, plate-bound b1b2 domain
[3] = target: b1b2 domains (273-586) of neuropilin-1, O14786; test: ELISA: target coated on the plate, biotinylated peptide at 100 nM and 1 uM, anti-biotin-AP and pNPP, absorbance at 405 nm [A]
[4] = target: b1b2 domains (275-595) of neuropilin-2, O60462; test: as above

Measured: binding

HTPGNSNKWKHLQENKKGRPRR (here or on the partner: biotin (position not given)) [A22p peptide]
binds: all assays above
